# From PubChem BioAssay AID540276 (National Center for Advancing Translational Sciences (NCATS), 2011)
# Out of some 300,000 compounds screened, about 5,400 (1.8%) were called active. Inconclusive results, whose numbers are uncertain, are shown with a selection of clear calls. Calls come from the whole dose curve; tested in HEK293 cells. Potencies of inconclusive entries are doubtful fits and often do not repeat.
# Assay: qHTS for inhibitors of binding or entry into cells for Marburg Virus
# Conditions: Marburg virus pseudotyped entry inhibition, cell reporter; series mostly up to 37.8 µM
# Potency is the fitted concentration of half-maximal effect.
row,SMILES,Potency
1,Cc1ccc2nc(C(F)(F)F)c(C#N)c(N)c2c1,inactive
2,COc1ccccc1-c1noc(CCC(=O)Nc2cccc(C(F)(F)F)c2)n1,"inconclusive: 23.1 µM [inhibitor, single point]"
3,O=C(Nc1ccc(-c2nnc(-c3ccccc3)o2)cc1)C(F)(F)F,inactive
4,COc1ccc(CN(C)Cc2nc3cc(OC)c(OC)cc3c(=O)[nH]2)c(OC)c1,"inconclusive: 5.62 µM [activator, single point]"
5,FC(F)(F)c1cccc(OCCN2CCN(Cc3ccccc3)CC2)c1,"inconclusive: 35.5 µM [inhibitor, single point]"
6,O=S(=O)(c1ccccc1Cl)N1CCCC1c1nc(-c2ccccc2Cl)no1 (stereo not given),"inconclusive: 25.9 µM [inhibitor, partial curve, poor fit]"
7,COC(=O)c1[nH]c2ccc(C)cc2c1NC(=O)CN1CCN(c2ccc(F)cc2)CC1,"inconclusive: 11.2 µM [inhibitor, partial curve, poor fit]"
8,C=CCN(c1ccccc1)S(=O)(=O)c1cccc(C(=O)Nc2nc3ccccc3[nH]2)c1,"inconclusive: 15.8 µM [inhibitor, single point]"
9,O=C(CN(C(=O)Cn1nnc(-c2ccccc2F)n1)c1cnc2ccccc2c1)NCC1CCCO1 (stereo not given),inactive
10,Cc1cccc(NC(=O)C2(c3ccc([N+](=O)[O-])cc3)CCCC2)c1,"inconclusive: 6.51 µM [activator, single point]"
11,COc1cc2c(cc1NS(=O)(=O)N1CCCCC1)oc1ccccc12,"inconclusive: 32.6 µM [inhibitor, partial curve, poor fit]"
12,CC1(C)Oc2ccc(C(=O)Nc3ccccc3)cc2N(CC#N)C1=O,"inconclusive: 11.2 µM [activator, partial curve, poor fit]"
13,CN(Cc1ccccc1)c1ncc(C=O)s1,"inconclusive: 6.31 µM [activator, partial curve]"
14,CCOc1ccc(/C=N/NC(=O)CN2CCSCC2)cc1,"inconclusive: 2.82 µM [activator, full curve, poor fit]"
15,O=C(CSC1=NS(=O)(=O)c2ccccc2N1)Nc1ccccc1F,inactive
16,CC(C)c1ccc(N=C2NN=C(c3cccs3)CS2)cc1,"inconclusive: 28.2 µM [inhibitor, single point]"
17,CCOc1ccc(NCc2cccn2-c2nnc(N3CCC(C(=O)NCCc4ccc(OCC)c(OCC)c4)CC3)s2)cc1,"inconclusive: 22.4 µM [inhibitor, single point]"
18,O=C(NC(Cc1ccccc1)C(=O)O)/C(=C\c1ccco1)NC(=O)c1ccccc1 (stereo not given),"inconclusive: 3.55 µM [activator, single point]"
19,O=C(O)C(Cc1ccccc1N(CCO)CCO)N1C(=O)c2ccccc2C1=O (stereo not given),inactive
20,CC(=O)C1=C(c2cccc([N+](=O)[O-])c2)N(C(C)=O)n2c(C)nnc2S1,"inconclusive: 23.1 µM [inhibitor, single point]"
21,O=C(N/N=C/c1c(F)c(F)c(F)c(F)c1F)c1ccc(Cn2cc(Br)cn2)o1,"inconclusive: 6.51 µM [activator, single point]"
22,O=c1c2ccccc2nc(/C=C/c2cccnc2)n1Cc1ccccc1,"inconclusive: 10 µM [inhibitor, partial curve, poor fit]"

# 15 of the compounds above, with bars between the fields:
row | SMILES | Potency
4 | COc1ccc(CN(C)Cc2nc3cc(OC)c(OC)cc3c(=O)[nH]2)c(OC)c1 | inconclusive: 5.62 µM [activator, single point]
5 | FC(F)(F)c1cccc(OCCN2CCN(Cc3ccccc3)CC2)c1 | inconclusive: 35.5 µM [inhibitor, single point]
6 | O=S(=O)(c1ccccc1Cl)N1CCCC1c1nc(-c2ccccc2Cl)no1 (stereo not given) | inconclusive: 25.9 µM [inhibitor, partial curve, poor fit]
7 | COC(=O)c1[nH]c2ccc(C)cc2c1NC(=O)CN1CCN(c2ccc(F)cc2)CC1 | inconclusive: 11.2 µM [inhibitor, partial curve, poor fit]
8 | C=CCN(c1ccccc1)S(=O)(=O)c1cccc(C(=O)Nc2nc3ccccc3[nH]2)c1 | inconclusive: 15.8 µM [inhibitor, single point]
9 | O=C(CN(C(=O)Cn1nnc(-c2ccccc2F)n1)c1cnc2ccccc2c1)NCC1CCCO1 (stereo not given) | inactive
10 | Cc1cccc(NC(=O)C2(c3ccc([N+](=O)[O-])cc3)CCCC2)c1 | inconclusive: 6.51 µM [activator, single point]
11 | COc1cc2c(cc1NS(=O)(=O)N1CCCCC1)oc1ccccc12 | inconclusive: 32.6 µM [inhibitor, partial curve, poor fit]
12 | CC1(C)Oc2ccc(C(=O)Nc3ccccc3)cc2N(CC#N)C1=O | inconclusive: 11.2 µM [activator, partial curve, poor fit]
13 | CN(Cc1ccccc1)c1ncc(C=O)s1 | inconclusive: 6.31 µM [activator, partial curve]
14 | CCOc1ccc(/C=N/NC(=O)CN2CCSCC2)cc1 | inconclusive: 2.82 µM [activator, full curve, poor fit]
15 | O=C(CSC1=NS(=O)(=O)c2ccccc2N1)Nc1ccccc1F | inactive
16 | CC(C)c1ccc(N=C2NN=C(c3cccs3)CS2)cc1 | inconclusive: 28.2 µM [inhibitor, single point]
17 | CCOc1ccc(NCc2cccn2-c2nnc(N3CCC(C(=O)NCCc4ccc(OCC)c(OCC)c4)CC3)s2)cc1 | inconclusive: 22.4 µM [inhibitor, single point]
18 | O=C(NC(Cc1ccccc1)C(=O)O)/C(=C\c1ccco1)NC(=O)c1ccccc1 (stereo not given) | inconclusive: 3.55 µM [activator, single point]

# Continuation.

row,SMILES,Potency
1,COc1ccc(C(=O)CNc2ccccc2Br)cc1,"inconclusive: 11.2 µM [activator, partial curve, poor fit]"
2,Cc1ccc(NC(=S)N/N=C/c2c(Cl)cccc2Cl)c(C)c1,"inconclusive: 11.2 µM [inhibitor, partial curve, poor fit]"
3,COC(=O)c1ccc(N2CCN(C)CC2)c(NC(=O)COc2ccccc2)c1,"inconclusive: 35.5 µM [inhibitor, single point]"
4,OCCNc1nc(Nc2ccc(Br)cc2)nc2ccccc12,"inconclusive: 12.6 µM [inhibitor, single point]"
5,COc1ccccc1-c1nnc2n1N=C(c1ccc(O)c(O)c1)CS2,"inconclusive: 0.259 µM [inhibitor, full curve, poor fit]"
6,Cc1cccc(N2CCN(C(=O)c3ccc(N4CCCC4=O)cc3)CC2C)c1 (stereo not given),"inconclusive: 35.5 µM [inhibitor, single point]"
7,CC(=O)Nc1ccc(C(=O)N/N=C/c2cccnc2)cc1,inactive
8,Cc1cccc(C(=O)n2nc(-c3ccco3)nc2NCc2ccccc2)c1,"inconclusive: 8.91 µM [activator, single point]"
9,CN(C)/C=C(\C#N)C(=O)N/N=C/c1ccccc1,"inconclusive: 0.562 µM [activator, full curve, poor fit]"
10,COc1ccc2c(c1)c(CC(=O)Nc1cccc(S(N)(=O)=O)c1)c(C)n2C(=O)c1ccc(Cl)cc1,"inconclusive: 35.5 µM [inhibitor, single point]"
11,CCOC(=O)CC(=O)CSc1nc2ccc(OC)cc2cc1C,inactive
12,C/C(=N\NC(=O)c1nn(C)c(C)c1Br)c1ccc(NC(=O)c2ccccc2F)cc1,inactive
13,CCN(CC)C(=O)CN1C(=O)C2(OCC(C)(c3ccccc3)CO2)c2ccccc21 (stereo not given),"inconclusive: 29.1 µM [inhibitor, single point]"
14,CC(Cc1ccccc1)NC(=O)c1ccc([N+](=O)[O-])cc1 (stereo not given),"inconclusive: 7.08 µM [inhibitor, partial curve, poor fit]"
15,CC(C)C1(C(C)C)OC(=O)c2ccccc21,"inconclusive: 0.708 µM [inhibitor, single point]"
16,Cc1cc(C)c(S(=O)(=O)ON2C(=O)c3ccccc3C2=O)cc1C,"inconclusive: 35.5 µM [inhibitor, partial curve, poor fit]"
17,CCCN1C(=O)/C(=C2\SC(N3CCCCC3)=NC2=O)c2ccccc21,"inconclusive: 6.31 µM [activator, single point]"
18,O=C(NCc1ccco1)c1cc2n(n1)C(C(F)(F)F)CC(c1ccc(Br)cc1)N2 (stereo not given),"inconclusive: 18.3 µM [inhibitor, single point]"
19,CCOc1ccc2oc(C(=O)NC3CCN(Cc4ccccc4)CC3)c(C)c2c1,"inconclusive: 20 µM [inhibitor, single point]"
20,O=C(C[n+]1cc(-c2ccc(F)cc2)n2c1CCC2)OCc1ccccc1,"inconclusive: 35.5 µM [activator, single point]"
21,CCCNC(=S)Nc1ccc(Cl)cc1C,inactive
22,CC(C)=C1SC(N2CCN(c3ccc(Cl)cc3)CC2)=NC1=O,"inconclusive: 11.2 µM [inhibitor, partial curve, poor fit]"

row,SMILES,Potency
1,CCN(CC)S(=O)(=O)c1ccc2c(c1)N(CC(=O)Nc1cccc(C(C)=O)c1)C(=O)CO2,"inconclusive: 4.47 µM [activator, single point]"
2,CCOC(=O)c1cn(Cc2cccc(Cl)c2)nn1,"inconclusive: 28.2 µM [inhibitor, single point]"
3,O=C1C[C@H](c2ccccc2)n2nc(N3C(=O)c4ccccc4C3=O)nc2N1,inactive
4,COc1ccc(NC(=O)c2ccc3c(c2)C(=O)N(CC2CCCO2)C3=O)c(OC)c1 (stereo not given),"inconclusive: 35.5 µM [activator, single point]"
5,C/C(=N\NC(=O)c1cccc(S(=O)(=O)N2CCCC2)c1)c1ccco1,inactive
6,Nc1ccc(C(=O)OCC(=O)Nc2cccc(S(=O)(=O)NC3=NCCCCC3)c2)cc1[N+](=O)[O-],"inconclusive: 0.447 µM [inhibitor, partial curve, poor fit]"
7,Cc1ccc(CSc2nc3ccncc3n2CC(=O)Nc2cc(C)cc(C)c2)cc1,"inconclusive: 0.651 µM [activator, partial curve, poor fit]"
8,Cc1cccc(Nc2nc(-c3ccc(O)c(O)c3)cs2)n1,"inconclusive: 10 µM [inhibitor, partial curve, poor fit]"
9,c1cncc(Nc2c3ccccc3nc3ccccc23)c1,"inconclusive: 22.4 µM [inhibitor, single point]"
10,Cc1ccc(S(=O)(=O)N2CCN(C(=O)CSc3ccccn3)CC2)c(C)c1,inactive
11,Cn1c(NC(=S)Nc2ccccc2)nc2ccccc21,"inconclusive: 7.94 µM [inhibitor, partial curve, poor fit]"
12,COc1cc(OC)cc(C(=O)Nc2ccc(NC(=O)c3ccco3)c(C)c2)c1,"inconclusive: 3.55 µM [inhibitor, partial curve, poor fit]"
13,COc1ccc(C(=O)NC(=S)NCCc2ccccc2)cc1,"inconclusive: 7.94 µM [activator, partial curve, poor fit]"
14,O=c1[nH]nc(Cc2ccc(-c3cccc(Cl)c3)o2)c2ccccc12,"inconclusive: 29.1 µM [inhibitor, single point]"
15,O=C1C=C(c2ccccc2)C(O)(c2ccccc2)C1 (stereo not given),inactive
16,Cc1ccc(OCC(=O)Nc2ccc(NC(=O)c3ccco3)cc2)c(C)c1,"inconclusive: 35.5 µM [inhibitor, partial curve, poor fit]"
17,Cc1cc(C)c2nc(C(F)(F)F)nc(NCCCN3CCCC3=O)c2c1,"inconclusive: 7.3 µM [inhibitor, partial curve, poor fit]"
18,CCOC(=O)N/N=C/c1c(C)c(C(=O)c2ccc(F)cc2)n2ccccc12,inactive
19,OCC1OC(n2cnc3c(SCc4ccccc4)ncnc32)C(O)C1O (stereo not given),"inconclusive: 11.2 µM [inhibitor, single point]"
20,O=C(NCCN1CCN(c2ccccc2)CC1)c1cccn2c(=O)c3ccccc3nc12,inactive
21,O=C1CCC2S/C(=C/Nc3ccc(C(F)(F)F)cc3)C(=O)N12 (stereo not given),"inconclusive: 14.1 µM [inhibitor, partial curve, poor fit]"
